For at least one compound, name, drawing or mass did not settle the structure.
Tested on: dengue type 2 virus subgenomic replicon (BHK-pD2hRucPac)
Experiment: Antiviral (replicon) assay, Renilla luciferase
Format: cell-based
Conditions: Table 2-1; read-out: Replicon Assay_EC50_M

With `CCN(CC)c1ccc(N2C(=O)/C(=C/c3ccc(C(=O)O)cc3)SC2=S)cc1` [BG125] the EC50 was 292 µM.

In the case of `O=C(O)c1ccccc1/C=C1\SC(=S)N(c2cccc(C(F)(F)F)c2)C1=O` [BG129], the EC50 is reported as 1420 µM.

Work on `COc1ccccc1/C=C1\SC(=O)N(CC(=O)O)C1=O` [BG215] yielded an EC50 of at least 100 µM.

`COc1cccc(/C=C2\SC(=S)N(CC(=O)O)C2=O)c1OC` [BG311] showed an EC50 of at least 100 µM.

Source: US9206412B2, “Thioxothiazolidine inhibitors” (Colorado State University Research Foundation, priority 2012, dated 2015)
